The experiment concerns CD2F1 mice, L1210 leukemia ip, survival T/C. Briefly: NCI In Vivo Anticancer Drug Screen. Data for tumor model L1210 Leukemia (intraperitoneal) in CD2F1 (CDF1) mice. Particulars: higher T/C = longer survival. In outline:
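Activity against a transplanted murine tumor was judged by comparing the compound group with a vehicle group. The outcome in the treated animals was divided by that in the controls.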

[1] abbreviates: T/C endpoint: mean survival time, dose: 100.0 mg/kg/injection, schedule: Q01DX001 (ip), vehicle: saline with Tween-80.
Where [2] appears, read: T/C endpoint: mean survival time, dose: 200.0 mg/kg/injection, schedule: Q01DX009 (ip), vehicle: saline.
Setting [3] is: T/C endpoint: mean survival time, dose: 400.0 mg/kg/injection, schedule: Q04DX002 (ip), vehicle: saline with Tween-80.
The mark [4] stands for this setting: T/C endpoint: mean survival time, dose: 400.0 mg/kg/injection, schedule: Q01DX001 (ip), vehicle: saline with Tween-80.
Setting [5] is: T/C endpoint: mean survival time, dose: 200.0 mg/kg/injection, schedule: Q04DX003 (ip), vehicle: saline with Tween-80.
[6] abbreviates: T/C endpoint: mean survival time, dose: 400.0 mg/kg/injection, schedule: Q04DX003 (ip), vehicle: saline with Tween-80.
Setting [7] is: T/C endpoint: mean survival time, dose: 50.0 mg/kg/injection, schedule: Q01DX009 (ip), vehicle: saline with Tween-80.
The mark [8] stands for this setting: T/C endpoint: mean survival time, dose: 400.0 mg/kg/injection, schedule: Q04DX003 (ip), vehicle: saline.
Where [9] appears, read: T/C endpoint: mean survival time, dose: 100.0 mg/kg/injection, schedule: Q04DX003 (ip), vehicle: saline with Tween-80.
The mark [10] stands for this setting: T/C endpoint: mean survival time, dose: 100.0 mg/kg/injection, schedule: Q01DX009 (ip), vehicle: saline with Tween-80.
Where [11] appears, read: T/C endpoint: mean survival time, dose: 200.0 mg/kg/injection, schedule: Q01DX009 (ip), vehicle: saline with Tween-80.

The list is a part of this screen's results and no random one: it gathers tests that were run many times, whatever their T/C, doses with no T/C, and many T/C values between a quarter and a half above the control. Other doses and runs of a compound stand elsewhere. T/C is the treated group as % of the vehicle group. Some entries give survivors of the animals treated and no T/C: the source files T/C as zero there, which appears to mark a toxic dose or a test without result, not a measured value. Some doses without a T/C left all or most animals alive at the check, yet need not have been tolerated: the source hardly ever lists a survival T/C far under the control, and the zero likely stands for such cases as well. Counts of survivors are from the toxicity check (mostly the fifth day) where no day follows; animals may have died later. Schedule codes are those of the source, taken here to give the interval after Q, in days (D) or hours (H), and the number of doses after X. Some doses were run more than once; their values stand side by side, smallest first. Some schedule codes hold Z or #, which are not explained here. For survival time, the PubChem record calls one and a half times the control and up active, and a quarter to a half above the control has no call in these data; cut-offs in other NCI protocols can differ.

The text below walks through data of PubChem BioAssay AID256 (DTP/NCI, 2004).

For `COc1ccc(C(O)(c2ccccc2)C(OC(=O)CCl)c2ccccc2)cc1` (configuration not stated), under setting [1], the survivor count was 6 of 6. Take `CC1(C)N=C(N)N=C(N)N1c1ccc(OCC(=O)N2CCOCC2)c(Cl)c1`: under setting [2], the survivor count was 1 of 6. Same read-out and setting: with `CCCN(CCC)CN(CCC)CCC` the figure was 1 of 3. For the compound `CC([NH-])C([NH-])O.[Cl][Pt+2][Cl]` (configuration not stated), the T/C is 125 % of control (T/C endpoint: mean survival time, dose: 12.5 mg/kg/injection, schedule: Q04DX003 (ip), vehicle: saline with Tween-80) and 130 % of control (T/C endpoint: mean survival time, dose: 25.0 mg/kg/injection, schedule: Q04DX003 (ip), vehicle: saline with Tween-80). As to `O=[N+]1C=CC(=NN=c2ccn([O-])cc2)C=C1`, the survivor count under setting [3] was 3 of 3. For `CC1(C)CC(NC2=NCCO2)CC(C)(C)N1`, the survivor count was 2 of 6 under setting [1]; 0 of 6 (T/C endpoint: mean survival time, dose: 200.0 mg/kg/injection, schedule: Q01DX001 (ip), vehicle: saline with Tween-80); 0 of 6 under setting [4]. On to `O=C(O)C/[N+]([O-])=N\O`, for which the survivor count (T/C endpoint: mean survival time, dose: 800.0 mg/kg/injection, schedule: Q04DX003 (ip), vehicle: saline) is recorded as 0 of 6.

Take `Cc1[nH]c(C(=O)NN)c(C)c1C(=O)NN`: the survivor count is 6 of 6 under setting [5] and 3 of 6 under setting [6].

For `COC(=O)C1CN1C1=C(C)C(=O)C2=C(C1=O)C(COC(N)=O)C1(OC)C3NC3CN21` (configuration not stated), the survivor count runs as follows: (T/C endpoint: median survival time, dose: 48.0 mg/kg/injection, schedule: Q01DX001 (ip), vehicle: water) 5 of 6; (T/C endpoint: median survival time, dose: 96.0 mg/kg/injection, schedule: Q01DX001 (ip), vehicle: water) 0 of 6. `C[S+](C)CC(C)(C)CI`: the survivor count reads like this: (T/C endpoint: mean survival time, dose: 200.0 mg/kg/injection, schedule: Q01DX001 (ip), vehicle: saline) 1 of 3; (T/C endpoint: mean survival time, dose: 400.0 mg/kg/injection, schedule: Q01DX001 (ip), vehicle: saline) 0 of 3. Turning to `CC(=O)OC1CC(C)CCC1C(C)C` (configuration not stated), the survivor count under setting [6] is 3 of 6. Regarding `CN(C)CCCN1c2ccccc2Sc2ccc(Cl)cc21`, the survivor count is, setting by setting: under setting [7], 2 of 6; (T/C endpoint: mean survival time, dose: 100.0 mg/kg/injection, schedule: Q04DX003 (ip), vehicle: saline) 6 of 6; under setting [8], 2 of 6. Moreover, the T/C (T/C endpoint: median survival time, dose: 50.0 mg/kg/injection, schedule: Q01DX001 (ip), vehicle: water) was 125 % of control. Take `Clc1ccc2c(c1)Cc1cc(N=Cc3ccccc3Cl)ccc1-2`: the survivor count reads like this: (T/C endpoint: mean survival time, dose: 225.0 mg/kg/injection, schedule: Q01DX009 (ip), vehicle: saline with Tween-80) 1 of 6; (T/C endpoint: mean survival time, dose: 385.0 mg/kg/injection, schedule: Q01DX009 (ip), vehicle: saline with Tween-80) 0 of 6.

On to `CN=C(N)c1ccc(N=C(N)c2ccc(NC(=O)c3ccc(C(N)=NC)cc3)cc2)cc1`, for which the survivor count is, setting by setting: (T/C endpoint: mean survival time, dose: 50.0 mg/kg/injection, schedule: Q01DX Z (ip), vehicle: water) 0 of 6; (T/C endpoint: mean survival time, dose: 75.0 mg/kg/injection, schedule: Q01DX Z (ip), vehicle: water) 0 of 6; (T/C endpoint: mean survival time, dose: 100.0 mg/kg/injection, schedule: Q01DX Z (ip), vehicle: water) 0 of 6.

Turning to `CC1CC(C)CC(C)C(O)/C(C#N)=C/C=C/CC(C2CCCC2C(=O)O)OC(=O)CC(O)C(C)C1` (configuration not stated), the survivor count is on record as 3 of 6 (T/C endpoint: mean survival time, dose: 12.5 mg/kg/injection, schedule: Q01DX009 (ip), vehicle: Klucel (hydroxypropylcellulose) (HPC)) and 2 of 6 (T/C endpoint: mean survival time, dose: 25.0 mg/kg/injection, schedule: Q01DX009 (ip), vehicle: Klucel (hydroxypropylcellulose) (HPC)). On to `c1ccc2c(c1)CC1CCCCN1C2` (configuration not stated), for which the survivor count reads like this: (T/C endpoint: mean survival time, dose: 100.0 mg/kg/injection, schedule: Q01DX001 (ip), vehicle: Klucel (hydroxypropylcellulose) (HPC)) 1 of 6; (T/C endpoint: mean survival time, dose: 200.0 mg/kg/injection, schedule: Q01DX001 (ip), vehicle: Klucel (hydroxypropylcellulose) (HPC)) 2 of 6; (T/C endpoint: mean survival time, dose: 400.0 mg/kg/injection, schedule: Q01DX001 (ip), vehicle: Klucel (hydroxypropylcellulose) (HPC)) 0 of 6. As for `O/N=C/c1cc[n+](CCC[n+]2ccc(/C=N/O)cc2)cc1`, the survivor count is reported as 0 of 6 under setting [9], 0 of 6 under setting [5] and 0 of 6 under setting [6]. In the case of `Cc1ncc(CO)c(C2NOCc3ccc(Cl)cc32)c1O` (configuration not stated), under “T/C endpoint: mean survival time, dose: 100.0 mg/kg/injection, schedule: Q01DX009 (ip), vehicle: Klucel (hydroxypropylcellulose) (HPC)”, the survivor count was 0 of 6. Take `O=C1CN=C(c2ccccn2)c2cc(Cl)ccc2N1`: the survivor count (T/C endpoint: mean survival time, dose: 600.0 mg/kg/injection, schedule: Q01DX009 (ip), vehicle: saline with Tween-80) is 0 of 6. In the case of `c1ccc(COC2CN3CCC2CC3)cc1` (configuration not stated), the survivor count under setting [10] is 3 of 6. As for `Nc1cc(=O)[nH]c(O)c1C(=O)O`, the survivor count under setting [11] is listed as 3 of 6. On to `CC(C(=O)c1ccccc1)N(C)C` (configuration not stated), for which the survivor count by setting is: (T/C endpoint: mean survival time, dose: 200.0 mg/kg/injection, schedule: Q04DX003 (ip), vehicle: saline) 0 of 4; under setting [8], 0 of 4.

As to `CS/C([S-])=N/[NH-].CS/C([S-])=N/[NH-].[Pd]`, the survivor count runs as follows: under setting [7], 1 of 6; under setting [10], 0 of 6; under setting [11], 2 of 6; under setting [4], 0 of 6. For `CC(=O)OCCC(C)Nc1ccnc2cc(Cl)ccc12` (configuration not stated), the survivor count reads like this: under setting [5], 1 of 6; under setting [6], 0 of 6. For the compound `CCOC/C(C)=C/Cl`, the survivor count (T/C endpoint: mean survival time, dose: 400.0 mg/kg/injection, schedule: Q01DX009 (ip), vehicle: acetone) was 0 of 6. Consider `Nc1nc(N)c2nc(CNc3ccc(C(=O)NC(CCC(=O)O)C(=O)O)cc3)ccc2n1` (configuration not stated), for which the survivor count is, setting by setting: (T/C endpoint: mean survival time, dose: 0.5 mg/kg/injection, schedule: Q01DX005 (ip), vehicle: sodium bicarbonate) 5 of 6; (T/C endpoint: mean survival time, dose: 1.0 mg/kg/injection, schedule: Q01DX005 (ip), vehicle: sodium bicarbonate) 3 of 6; (T/C endpoint: mean survival time, dose: 2.0 mg/kg/injection, schedule: Q01DX005 (ip), vehicle: sodium bicarbonate) 4 of 6; (T/C endpoint: mean survival time, dose: 4.0 mg/kg/injection, schedule: Q01DX005 (ip), vehicle: sodium bicarbonate) 3 of 6; (T/C endpoint: mean survival time, dose: 8.0 mg/kg/injection, schedule: Q01DX005 (ip), vehicle: sodium bicarbonate) 3 of 6; (T/C endpoint: mean survival time, dose: 16.0 mg/kg/injection, schedule: Q01DX005 (ip), vehicle: sodium bicarbonate) 2 of 6. Further, the survivor count (T/C endpoint: mean survival time, dose: 500.0 micrograms/kg/injection, schedule: Q01DX005 (ip), vehicle: sodium bicarbonate) is 3 of 6 and 6 of 6. For the same compound, the T/C was 134 % of control (T/C endpoint: mean survival time, dose: 125.0 micrograms/kg/injection, schedule: Q01DX005 (ip), vehicle: sodium bicarbonate); 138 and 140 % of control (T/C endpoint: mean survival time, dose: 250.0 micrograms/kg/injection, schedule: Q01DX005 (ip), vehicle: sodium bicarbonate).

Regarding `COC(=O)c1[nH]c2ccccc2c(=O)c1Cl`, the survivor count is, setting by setting: under setting [9], 0 of 6; under setting [5], 0 of 6; under setting [6], 0 of 6. As to `O=C1OC(=O)C2CCCC3CCCC1C32` (configuration not stated), the survivor count under setting [3] is 0 of 3.

Turning to `COc1c(CNC(=O)CCl)cc2[nH]c(C)cc2c1CNC(=O)CCl`, the survivor count (T/C endpoint: mean survival time, dose: 400.0 mg/kg/injection, schedule: Q01DX009 (ip), vehicle: Klucel (hydroxypropylcellulose) (HPC)) is 1 of 6. As to `COc1ccc(OC)c2[nH]c(=O)c(CCC(=O)O)nc12`, under setting [4], the survivor count is 0 of 6. `CC[S+](CC)CC`: under setting [2], the survivor count was 1 of 6. Regarding `Cc1ccc2c(C)nc(N=C(N)N)nc2c1`, for the setting “T/C endpoint: mean survival time, dose: 75.0 mg/kg/injection, schedule: Q01DX009 (ip), vehicle: saline”, the survivor count is reported as 0 of 6. Regarding `CC(C)CN1CCCC(=O)C(O)CCC1` (configuration not stated), for the setting “T/C endpoint: mean survival time, dose: 100.0 mg/kg/injection, schedule: Q01DX009 (ip), vehicle: acetone”, the survivor count is reported as 0 of 6. Turning to `OC(C=C(C(F)(F)F)C(F)(F)F)c1cccs1` (configuration not stated), the survivor count under setting [11] is given as 4 of 6 and the survivor count (T/C endpoint: mean survival time, dose: 400.0 mg/kg/injection, schedule: Q01DX009 (ip), vehicle: saline with Tween-80) is given as 4 of 6.
